From PubChem BioAssay AID504444 (National Center for Advancing Translational Sciences (NCATS), 2011)
Among all 360,000 compounds or so, about 7,500 (2.1%) were called active. Inconclusive results, whose numbers are uncertain, are shown with a selection of clear calls. The call rests on the fitted dose curve; in most records, active means well fitted inhibition curve with a large enough effect; inconclusive means small, poorly fitted or top-dose-only effect, or effect the other way; inactive means flat fitted curve, though single readings scatter. Potencies of inconclusive entries are doubtful fits and often do not repeat.

experiment: Nrf2 qHTS screen for inhibitors; conditions: A549 ARE-Fluc reporter, luciferase luminescence, 18-24 h; activity change, negative = inhibition: at 46 µM (top of the series); further: nearly all actives have a fitted effect of over 60% in size
How it was run: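 Nrf2 activity is the BugLite luminescence, read 15 min after reagent at room temperature, following CellTiter-Fluor cytotoxicity readout (30 min, 37C). Compound titrations were applied for 18-24 h to 5000 A549 ARE_Fluc cells/well in 5% FBS OPTI-MEM.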
On the % scale 0 is the no-effect control and ±100 the full control effect; potency means the concentration at half of the fitted maximal effect.

Structure (SMILES) | activity change, negative = inhibition | Potency
CC(NCc1cc(Br)ccc1OCC(=O)NCc1ccccc1)c1ccccc1 (configuration not stated) | inactive: -16.1% | 
CCn1ncc(C2=NOC(C(=O)Nc3ccc(C)cc3)C2)c1C (configuration not stated) |  | inconclusive: 7.31 µM [falling, partial curve, poor fit]
CCc1ccc(CN(C)CC(=O)Nc2ccc(S(=O)(=O)N3CCOCC3)cc2)cc1 |  | inconclusive: 32.6 µM [falling, partial curve, poor fit]
O=C(Nc1ccncc1)C1C(=O)c2ccccc2N(Cc2ccccc2)C1=O (configuration not stated) |  | inconclusive: 29.1 µM [activator, single point]
COc1ccc(/C=N/NC(=O)Nc2cccc3nsnc23)cc1OC |  | inconclusive: 6.51 µM [falling, full curve, poor fit]
CCN1CCN(CC(=O)c2c(C)n(C)c3ccc(OC)cc23)CC1 |  | inconclusive: 0.0501 µM [activator, full curve, poor fit]
COc1cccc(CNS(=O)(=O)c2ccc3c(c2)CC(C)N3C(=O)C2CC2)c1 (configuration not stated) |  | inconclusive: 20.6 µM [falling, single point]
O=C(NCCSc1c[nH]c2ccccc12)c1ccccc1Cl | inactive: -11.9% [at 9.27 µM] | 
Cc1cccc(OCCCC(=O)Nc2ccc(S(=O)(=O)N3CCCC3)cc2)c1 |  | inconclusive: 14.6 µM [falling, partial curve, poor fit]
Cc1cccn2c(=O)c3cc(C(=O)NCCc4ccccc4)c(=N)n(Cc4ccco4)c3nc12 |  | inconclusive: 0.517 µM [activator, full curve, poor fit]
CN1CC=C2C(C#N)=C(N)C(C#N)(C#N)C(c3ccsc3)C2C1 (configuration not stated) | inactive: -2.09% | 
Cc1ccc(NC(=O)CCc2c[nH]c3ccccc23)nc1 |  | inconclusive: 18.4 µM [activator, partial curve]
COc1cccc(NC(=O)Cn2c(=O)n(-c3ccccc3)c(=O)c3oc4ccccc4c32)c1 | inactive: 9.53% | 
COc1ccc(C2C3=C(N=CN(CCN4CCOCC4)C3N)Oc3ccccc32)cc1OC (configuration not stated) | inactive: 8.23% | 
Cc1ccc(NC(=O)c2oc3ccccc3c2C)c([N+](=O)[O-])c1 |  | inconclusive: 14.6 µM [activator, partial curve]
CCN(CC)CCn1c2ccccc2c2cnc(N)c(C#N)c21 |  | active: 5.17 µM
Cc1nc(NC(=O)COC(=O)c2cc3c(s2)CCC(C)C3)c(Cl)cc1Cl (configuration not stated) | inactive: 11.2% | 
O=S(Cc1cc(Oc2ccccc2)nc(-c2ccccc2)n1)c1ccccc1 (configuration not stated) |  | active: 10.3 µM
c1ccc(-c2cc3n(c2)CCc2ccccc2-3)cc1 |  | inconclusive: 1.84 µM [activator, full curve]
Cc1ccc(S(=O)(=O)N(C)C)cc1NC(=O)CN1c2cccc3cccc(c23)S1(=O)=O |  | inconclusive: 29.1 µM [falling, partial curve, poor fit]
COCC(=O)NC1CC2CCC(C1)N2C(=S)Nc1ccccc1C(=O)OC (configuration not stated) | inactive: -22.3% | 

Structure (SMILES) | activity change, negative = inhibition | Potency
COc1cccc(Cn2cc(C(=O)c3ccc(Cl)cc3)c(=O)c3ccccc32)c1 |  | inconclusive: 20.6 µM [falling, single point]
O=S(NCc1ccco1)C12CC3CC(CC(C3)C1)C2 (configuration not stated) | inactive: -11.6% | 
Clc1ccc(OCc2nc(-c3ccncc3)no2)c(Br)c1 | inactive: 0.026% | 
CC(C)(C)Nc1nc(SCC(=O)Nc2ccccc2Cl)nc(N2CCOCC2)n1 |  | inconclusive: 29.1 µM [falling, single point]
COc1cc(NS(=O)(=O)c2ccc(Br)s2)cc(OC)c1 |  | inconclusive: 29.1 µM [falling, single point]
CCSc1ncc(Cl)c(C(=O)Nc2cccc(Cl)c2)n1 |  | inconclusive: 16.4 µM [falling, partial curve, poor fit]
COc1ccc(-c2csc(NC(=O)Cc3cc(OC)c(OC)c(OC)c3)n2)cc1OC |  | active: 20.6 µM
COC(=O)c1ccc(CSC(=N)N)o1 |  | inconclusive: 20.6 µM [activator, partial curve]
CN(C)/C=C/C(=O)c1cnc(-c2ccccc2)s1 |  | inconclusive: 10.3 µM [activator, partial curve]
C=CCn1cnc2c(nnn2-c2ccc(C)c(C)c2)c1=O |  | inconclusive: 23.1 µM [activator, single point]
CC(C)c1[nH]nc2c1C(C1C=CCCC1)C(C#N)=C(N)O2 (configuration not stated) |  | inconclusive: 29.1 µM [falling, single point]
CCCn1c(N)c(C(=O)COC(=O)c2cccc(S(=O)(=O)N3CCOCC3)c2)c(=O)[nH]c1=O |  | inconclusive: 0.651 µM [falling, full curve, poor fit]
COc1ccc(-n2c(=O)c3c4c(sc3n(CC(N)=O)c2=O)CCCCC4)cc1 |  | inconclusive: 32.6 µM [falling, partial curve, poor fit]
CCOc1ccccc1CNC(=O)CCNC(=O)Cn1ccc2ccccc2c1=O |  | inconclusive: 0.092 µM [falling, full curve, poor fit]
COc1nc(-c2ccccc2)cc(-c2ccc(OC)c(OC)c2)n1 |  | inconclusive: 23.1 µM [falling, partial curve, poor fit]
COc1ccccc1CNC(=O)c1ccc(NS(=O)(=O)c2c(C)noc2C)cc1 |  | inconclusive: 2.59 µM [falling, full curve, poor fit]
COC(=O)c1ccc(NC(=O)CSc2nc(N)c(NC(=O)c3ccc(Br)o3)c(=O)[nH]2)cc1 |  | inconclusive: 29.1 µM [activator, single point]
CCCc1ccc2oc(C(=O)N(Cc3ccncc3)CC3CCCO3)c(C)c2c1 (configuration not stated) |  | inconclusive: 32.6 µM [falling, single point]
CCCC(CCC)=NNC(=O)c1ccccc1F |  | inconclusive: 29.1 µM [activator, single point]
O=C(Nc1ccncc1)c1ccc(Cl)c(S(=O)(=O)N2CCc3ccccc32)c1 |  | inconclusive: 2.31 µM [falling, full curve, poor fit]
COC(=O)Cn1c(SCCOc2ccccc2OC)nc2ccccc21 |  | inconclusive: 13 µM [activator, partial curve, poor fit]

Structure (SMILES) | activity change, negative = inhibition | Potency
Cc1cccn2c(=O)c(/C=C(\C#N)C(=O)NCc3ccco3)c(N3CCOCC3)nc12 | inactive: -14.5% | 
Cc1cc2[nH]c(=O)c(=O)[nH]c2cc1S(=O)(=O)N1CCN(c2cccc(Cl)c2)CC1 |  | inconclusive: 29.1 µM [activator, single point]
Cc1ccc(-c2cc(C(=O)N/N=C/c3c(C)nn(C)c3C)c3ccccc3n2)cc1C |  | inconclusive: 32.6 µM [falling, single point]
C#CCOCCOCCOCCNc1nc(N2CCN(C(=O)CCCCCCCCCCNC(=O)[C@H](CCCCN)n3cc(CCO)nn3)CC2)nc(N2CCN(C(=O)CCCCCCCCCCNC(=O)[C@H](CCCCN)n3cc(C[C@@H](C)CC)nn3)CC2)n1 |  | inconclusive: 29.1 µM [falling, single point]
Cc1cc(=O)oc2c3c(cc(OCC(=O)NCc4ccco4)c12)OC(C)(C)CC3 |  | inconclusive: 16.4 µM [falling, partial curve, poor fit]
CCOc1ccc(CCN2C(=S)N([C@@H](CC(C)C)CN3CCCC3CN3C(=S)NC[C@@H]3Cc3ccc(O)cc3)C[C@@H]2Cc2ccc(O)cc2)cc1 (some centres not stated) |  | inconclusive: 20.6 µM [falling, single point]
COc1cc(Cl)ccc1OCc1cc(C(=O)N(C)Cc2cccc3cnccc23)no1 |  | inconclusive: 29.1 µM [falling, single point]
COc1cc(/C=C(/C(=O)c2cccs2)c2nc3ccccc3[nH]2)ccc1O |  | inconclusive: 0.0046 µM [falling, full curve, poor fit]
C=CCNC(=O)C1CC(=O)N(c2ccc(OCc3ccc(F)cc3)cc2)C1 (configuration not stated) |  | inconclusive: 9.2 µM [activator, partial curve]
Cc1ccc(CN2CC(C(=O)N3CCN(S(=O)(=O)c4ccc(C(C)C)cc4)CC3)CC2=O)cc1 (configuration not stated) |  | inconclusive: 20.6 µM [falling, single point]
CCn1c(NC(=O)c2ccc(COc3ccc(C)cc3[N+](=O)[O-])o2)nc2ccccc21 |  | inconclusive: 20.6 µM [falling, partial curve, poor fit]
C/C(=N\Nc1cccc(C(=O)O)c1)c1ccc(Cl)s1 |  | inconclusive: 8.2 µM [activator, partial curve]
Cc1ccc2nc(-c3ccccc3)c(CN3CCSCC3)n2c1 |  | inconclusive: 16.4 µM [activator, partial curve, poor fit]
Cc1ccc(-c2nc(-c3cc4cc(Cl)ccc4oc3=O)sc2C)cc1 | inactive: 9.89% | 
CC(C)Cn1c(-c2cccc(Br)c2)nc2ccccc21 |  | inconclusive: 29.1 µM [falling, partial curve, poor fit]
CCN(CC(=O)NCc1ccc(Cl)cc1)C(=O)C1CCN(S(=O)(=O)c2ccc(OC)c(OC)c2)CC1 |  | inconclusive: 23.1 µM [falling, single point]
Nc1nnc(COc2ccccc2)s1 |  | inconclusive: 32.6 µM [activator, single point]
CC(NC(=O)c1ccc(Cn2cc([N+](=O)[O-])cn2)cc1)c1ccccc1 (configuration not stated) |  | inconclusive: 23.1 µM [activator, partial curve, poor fit]
CCOC(=O)C1(C)C=C(Nc2cccc(C(=O)O)c2)C(=O)N1c1ccccc1 (configuration not stated) |  | inconclusive: 2.31 µM [activator, full curve, poor fit]
Cc1ccc(NC(=O)COc2cccc(/C=C3\SC(=S)N(CCC(=O)O)C3=O)c2)cc1Cl | inactive: 3.27% | 

Reformatted as labelled records: 3 of the compounds above
Cc1ccc2nc(-c3ccccc3)c(CN3CCSCC3)n2c1
  Potency: inconclusive: 16.4 µM [activator, partial curve, poor fit]
Cc1ccc(-c2nc(-c3cc4cc(Cl)ccc4oc3=O)sc2C)cc1
  activity change, negative = inhibition: inactive: 9.89%
CC(C)Cn1c(-c2cccc(Br)c2)nc2ccccc21
  Potency: inconclusive: 29.1 µM [falling, partial curve, poor fit]

Shown as a markdown table: entries from further up

| Structure (SMILES) | activity change, negative = inhibition | Potency |
| --- | --- | --- |
| CCn1c(NC(=O)c2ccc(COc3ccc(C)cc3[N+](=O)[O-])o2)nc2ccccc21 |  | inconclusive: 20.6 µM [falling, partial curve, poor fit] |
| Cc1ccc(NC(=O)COc2cccc(/C=C3\SC(=S)N(CCC(=O)O)C3=O)c2)cc1Cl | inactive: 3.27% |  |
